Holding throughout (assay): DAPPL (digital affinity profiling via proximity ligation, sequencing)
Holding throughout (details): 10 mM Tris-HCl pH 7.5, 50 mM NaCl, 1 mM DTT, 4% glycerol, room temperature, 30 min; GST-TFs on glutathione beads, 16-mer random dsDNA library, 0.1% …; high values mean tight binding; double strand, one strand shown; scale: fold enrichment (6-mer frequency, TF over GST control)

The target in one experiment is T1, ELK1 (UniProt P19419).
T1 sequence: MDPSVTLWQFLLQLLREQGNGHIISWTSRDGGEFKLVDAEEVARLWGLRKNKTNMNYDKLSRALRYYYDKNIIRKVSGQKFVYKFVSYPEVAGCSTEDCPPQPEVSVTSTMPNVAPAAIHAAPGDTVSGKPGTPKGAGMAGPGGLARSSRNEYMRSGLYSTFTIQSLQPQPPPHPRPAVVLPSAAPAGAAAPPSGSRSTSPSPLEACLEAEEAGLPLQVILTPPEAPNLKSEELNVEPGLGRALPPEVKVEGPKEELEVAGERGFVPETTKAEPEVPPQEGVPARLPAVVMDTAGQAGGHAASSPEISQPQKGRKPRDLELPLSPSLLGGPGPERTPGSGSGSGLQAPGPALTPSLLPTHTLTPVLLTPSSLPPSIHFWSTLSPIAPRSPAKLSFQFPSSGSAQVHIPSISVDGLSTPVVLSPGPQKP

Another experiment concerns the target T2, ELK3 (UniProt P41970).
T2 sequence: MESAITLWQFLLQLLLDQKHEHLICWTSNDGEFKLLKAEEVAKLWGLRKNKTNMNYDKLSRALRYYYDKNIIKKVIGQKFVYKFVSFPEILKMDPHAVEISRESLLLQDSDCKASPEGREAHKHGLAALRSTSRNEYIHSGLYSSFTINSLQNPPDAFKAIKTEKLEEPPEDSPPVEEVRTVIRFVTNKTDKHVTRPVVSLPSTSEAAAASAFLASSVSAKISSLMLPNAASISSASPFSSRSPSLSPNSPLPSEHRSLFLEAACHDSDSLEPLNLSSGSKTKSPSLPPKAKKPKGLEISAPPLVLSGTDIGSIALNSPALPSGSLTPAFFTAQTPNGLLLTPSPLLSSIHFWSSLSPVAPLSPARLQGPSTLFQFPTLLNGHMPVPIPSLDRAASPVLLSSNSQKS

For another experiment, the target named is T3, SPIC (UniProt Q8N5J4).
T3 sequence: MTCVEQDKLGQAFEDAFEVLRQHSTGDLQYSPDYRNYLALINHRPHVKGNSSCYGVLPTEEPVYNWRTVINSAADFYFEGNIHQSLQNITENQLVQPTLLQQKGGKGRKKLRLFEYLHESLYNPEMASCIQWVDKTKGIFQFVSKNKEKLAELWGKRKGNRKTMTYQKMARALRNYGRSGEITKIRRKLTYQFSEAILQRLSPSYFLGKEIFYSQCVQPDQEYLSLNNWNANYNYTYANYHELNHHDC

The target in a further experiment is T4, ETS2 (UniProt P15036).
T4 sequence: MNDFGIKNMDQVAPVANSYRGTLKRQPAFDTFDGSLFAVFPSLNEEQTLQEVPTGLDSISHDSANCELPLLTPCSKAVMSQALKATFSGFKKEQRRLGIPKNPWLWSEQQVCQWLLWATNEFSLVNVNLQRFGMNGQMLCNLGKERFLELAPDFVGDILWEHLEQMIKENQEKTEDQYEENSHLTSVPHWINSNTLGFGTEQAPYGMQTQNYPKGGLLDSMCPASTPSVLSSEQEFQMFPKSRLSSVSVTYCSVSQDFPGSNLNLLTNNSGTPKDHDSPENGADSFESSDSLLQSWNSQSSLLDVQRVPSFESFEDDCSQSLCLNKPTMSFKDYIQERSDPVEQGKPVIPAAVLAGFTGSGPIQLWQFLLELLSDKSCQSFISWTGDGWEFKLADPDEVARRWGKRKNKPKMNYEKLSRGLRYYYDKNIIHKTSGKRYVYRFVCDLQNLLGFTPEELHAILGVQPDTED

Another experiment addresses T5, ETV3 (UniProt P41162-2).
T5 sequence: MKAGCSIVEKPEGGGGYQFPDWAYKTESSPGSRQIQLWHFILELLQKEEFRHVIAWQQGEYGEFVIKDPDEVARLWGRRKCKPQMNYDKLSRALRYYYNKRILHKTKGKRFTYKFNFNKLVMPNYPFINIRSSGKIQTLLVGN

The text below walks through data of PMC7862700.

The entries are a selection whose mix differs from that of the whole data set. At the low end of the ranking the order means little.

For the sequence CGGATT, the binding signal with ELK1 is 0.924; with ELK3, 0.947; with SPIC it was 0.973; with ETS2, 0.94.

With GCGGCT, the binding signal with ELK1 stood at 0.93; with ELK3, 0.965; with SPIC it was 0.977; in the experiment with ETS2 it was 0.975.

With GTAGCG, the binding signal in the experiment with ELK1 turned out to be 0.94; with ELK3, 0.829; with SPIC, 0.873; with ETS2 it was 0.905.

Consider AGGATA, for which the binding signal with ELK1 was determined as 0.989; with ELK3, 0.882; in the experiment with SPIC, 0.976; with ETS2, 0.974.

With TGTTGC, the binding signal came out at 1.32 with ELK1, 1.4 with ELK3, 1.17 in the experiment with SPIC and 1.3 with ETS2.

As to TGGAAG, the binding signal with ELK1 came to 0.959; with ELK3 it was 0.976; with SPIC, 0.985; with ETS2 it was 1.01.

As for TGCGGT, the binding signal with ELK1 was found to be 0.942; with ELK3, 0.862; with SPIC it was 0.91; in the experiment with ETS2, 0.89.

On to ATAGAC, for which the binding signal in the experiment with ELK1 was 0.989; with ELK3, 0.928; in the experiment with SPIC, 0.863; in the experiment with ETS2, 0.974.

Regarding GTCCGG, the binding signal in the experiment with ELK1 came out at 0.923; with ELK3 it was 0.803; in the experiment with SPIC it was 0.865; in the experiment with ETS2, 0.944.

With CATTGA, the binding signal in the experiment with ELK1 was determined as 1.05; with ELK3, 0.898; with SPIC, 0.896; with ETS2 it was 0.963; in the experiment with ETV3 it was 0.938.

Consider CACGGA, for which the binding signal with ELK1 was found to be 0.967; with ELK3 it was 0.995; with SPIC, 1.06; in the experiment with ETS2, 0.984.

Turning to ACAGAA, the binding signal was 0.94 with ELK1; 0.868 with ELK3; 0.987 in the experiment with SPIC; 0.987 with ETS2; 0.899 with ETV3.

Regarding GTGTCC, the binding signal is 1.07 with ELK1, 1.05 in the experiment with ELK3, 1.2 with SPIC and 1.16 in the experiment with ETS2.

Regarding TCTCAT, the binding signal with ELK1 amounted to 1.36; in the experiment with ELK3, 1.29; in the experiment with SPIC, 1.46; in the experiment with ETS2 it was 1.26.

Consider GGATAC, for which the binding signal came to 0.946 in the experiment with ELK1, 0.929 with ELK3, 0.971 with SPIC and 0.996 in the experiment with ETS2.

On to AGCTGT, for which the binding signal with ELK1 was found to be 0.941; with ELK3, 0.925; with SPIC, 1.15; with ETS2, 0.926.

Take GTGGAA: the binding signal in the experiment with ELK1 came to 0.931; in the experiment with ELK3 it was 0.929; with SPIC, 1.02; with ETS2 it was 0.952.

GTAATC: the binding signal worked out at 1.14 in the experiment with ELK1; 1.11 with ELK3; 0.972 with SPIC; 1.16 in the experiment with ETS2; 1.1 with ETV3.

With CGGCCC, the binding signal with ELK1 is 1.03; with ELK3, 0.877; in the experiment with SPIC, 0.983; with ETS2, 0.935; in the experiment with ETV3, 0.926.

With TCGCGG, the binding signal came out at 0.972 with ELK1, 0.985 with ELK3, 0.951 with SPIC and 0.952 in the experiment with ETS2.

Take TGGCTG: the binding signal came out at 0.935 with ELK1, 0.958 with ELK3, 0.975 with SPIC and 1.05 with ETS2.

Regarding CTGTGT, the binding signal was determined as 0.8 with ELK1; 0.894 with ELK3; 0.838 in the experiment with SPIC; 0.916 in the experiment with ETS2; 0.869 in the experiment with ETV3.

CCGTTA: the binding signal was determined as 0.97 in the experiment with ELK1; 0.905 with ELK3; 0.987 with SPIC; 0.966 with ETS2; 0.961 with ETV3.

As for CCAAGC, the binding signal with ELK1 worked out at 0.962; with ELK3, 0.969; in the experiment with SPIC, 0.878; with ETS2, 1.03.

With GTCCAA, the binding signal came to 0.944 with ELK1, 0.916 with ELK3, 0.88 with SPIC and 0.998 with ETS2.

As to ACCGTT, the binding signal turned out to be 0.923 with ELK1, 0.988 with ELK3, 0.947 in the experiment with SPIC and 0.996 in the experiment with ETS2.

AGAAGG: the binding signal is 0.675 with ELK1; 0.698 with ELK3; 0.64 with SPIC; 0.753 with ETS2; 0.656 in the experiment with ETV3.

For the sequence AGTTTT, the binding signal with ELK1 turned out to be 0.997; with ELK3, 1.14; in the experiment with SPIC it was 0.916; with ETS2, 0.974.

Regarding TGCGTC, the binding signal with ELK1 was 0.914; with ELK3 it was 0.974; with SPIC, 0.983; with ETS2 it was 1; with ETV3 it was 0.93.

Consider ACGCCG, for which the binding signal was 1.11 in the experiment with ELK1, 1.11 with ELK3, 0.876 with SPIC and 1.01 with ETS2.

On to TCAGTA, for which the binding signal in the experiment with ELK1 was found to be 0.953; with ELK3, 0.932; in the experiment with SPIC it was 0.973; in the experiment with ETS2, 0.978.
